{"source": "PubChem BioAssay AID1224830 – NIAID – 2016", "aim": "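Host factors that control LPS-induced TNF expression in human macrophages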 (primary screen)", "cell system": "human THP-1 monocytic leukaemia cells, TNF dual-luciferase reporter clone, PMA-differentiated to macrophage-like cells", "reagent": "siRNA pool against human genes, 50 nM", "timing": "LPS for 4 h, given about 3 days after siRNA transfection", "conditions": "bacterial LPS (TLR4 ligand), 10 ng/ml", "read-out": "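TNF firefly reporter luminescence divided by renilla, normalised to the plate median, then turned into a robust z-score for each replicate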", "direction": "TNF reporter robust z-score: higher = stronger TNF reporter response to LPS", "hit rule": "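Each well counts as active if its z-score is over 2.8 or under -1.5; controls are left without a call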", "note": "The whole screen tested about 18,000 reagents; below is an unselected part. About 2,900 of all reagents (16%) were called active. 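Calls are made per well; low scores hint the gene aids the LPS response, high scores that it dampens it.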 Entries without a mark were called inactive. Repeated entries: four replicate wells of each siRNA pool. Reagent sequences are not shown."}
{"gene": "PPM1J", "TNF reporter robust z-score": 0.17}
{"gene": "PPM1J", "TNF reporter robust z-score": -0.65}
{"gene": "PPM1J", "TNF reporter robust z-score": -0.5}
{"gene": "PPM1J", "TNF reporter robust z-score": 0.31}
{"gene": "NDN", "TNF reporter robust z-score": -0.79}
{"gene": "NDN", "TNF reporter robust z-score": -0.97}
{"gene": "NDN", "TNF reporter robust z-score": -0.8}
{"gene": "NDN", "TNF reporter robust z-score": -0.42}
{"gene": "EHMT2", "TNF reporter robust z-score": -1.08}
{"gene": "EHMT2", "TNF reporter robust z-score": -1.34}
{"gene": "EHMT2", "TNF reporter robust z-score": -1.37}
{"gene": "EHMT2", "TNF reporter robust z-score": -1.39}
{"gene": "ELMOD3", "TNF reporter robust z-score": -0.2}
{"gene": "ELMOD3", "TNF reporter robust z-score": 1.16}
{"gene": "ELMOD3", "TNF reporter robust z-score": -0.98}
{"gene": "ELMOD3", "TNF reporter robust z-score": 1.61}
{"gene": "HDIP1", "TNF reporter robust z-score": -0.4}
{"gene": "HDIP1", "TNF reporter robust z-score": -0.05}
{"gene": "HDIP1", "TNF reporter robust z-score": -0.02}
{"gene": "HDIP1", "TNF reporter robust z-score": -0.11}
{"gene": "ADIRF", "TNF reporter robust z-score": "-1.55 (active)"}
{"gene": "ADIRF", "TNF reporter robust z-score": -1.1}
{"gene": "ADIRF", "TNF reporter robust z-score": "-1.53 (active)"}
{"gene": "ADIRF", "TNF reporter robust z-score": "-1.56 (active)"}
{"gene": "SH3BGRL", "TNF reporter robust z-score": -0.57}
{"gene": "SH3BGRL", "TNF reporter robust z-score": -0.08}
{"gene": "SH3BGRL", "TNF reporter robust z-score": -0.64}
{"gene": "SH3BGRL", "TNF reporter robust z-score": -0.13}
{"gene": "CCDC126", "TNF reporter robust z-score": -1.07}
{"gene": "CCDC126", "TNF reporter robust z-score": -0.71}
{"gene": "CCDC126", "TNF reporter robust z-score": 0.12}
{"gene": "CCDC126", "TNF reporter robust z-score": -0.92}

A stretch taken from the entries so far, for reference:
{"gene": "ADIRF", "TNF reporter robust z-score": "-1.53 (active)"}
{"gene": "ADIRF", "TNF reporter robust z-score": "-1.56 (active)"}
{"gene": "SH3BGRL", "TNF reporter robust z-score": -0.57}
{"gene": "SH3BGRL", "TNF reporter robust z-score": -0.08}
{"gene": "SH3BGRL", "TNF reporter robust z-score": -0.64}
